Experimental data taken from PubChem BioAssay AID493014 (National Center for Advancing Translational Sciences (NCATS), 2011).
The campaign covered roughly 340,000 compounds. About 170 (0.05%) were called active. Inconclusive results, whose numbers are uncertain, are shown with a selection of clear calls. Calls follow the shape of the dose curve; as a rule, active = well fitted inhibition curve with a large enough effect in the signal ratio, with a control signal flat (not every such curve was filed as active); inconclusive = small, poorly fitted or top-dose-only effect, or effect the other way, or a change in a side signal; inactive = flat fitted curve, though single readings scatter; the % refers to the signal ratio. Potencies beside an inconclusive call are fits to weak or partial responses and may not hold up.

experiment: qHTS Assay to Find Inhibitors of Chronic Active B-Cell Receptor Signaling; details: ABC-DLBCL IkBa-CBG/CBR reporter, luminescence ratio (green luciferase fused to IkBa over red control in TMD8 lymphoma cells), 4 h; activity change, negative = inhibition: at 46.1 µM (top of the series);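 as to activity change, negative = inhibition: plate controls were basal doxycycline-induced cells for no effect and cells given 10 µM MG132 for full effect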
Procedure, shortened: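 Concentration-response series (up to 46 uM) were applied to TMD8 dual-reporter cells for 4 h at 37C with doxycycline. Green/red ratio, after filter-overlap correction, defined %Activity; red signal alone was normalised to basal cells and zero luminescence.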
Potency is read from the fitted curve at half-maximal effect.

With `CC(C)CCNC(=O)c1cc(-c2ccco2)nc2ccccc12` as the compound, how does the “activity change, negative = inhibition” value read?
Its value is inactive: 20.5%.

Which activity change, negative = inhibition does the source give for `O=C(Nc1ccc([N+](=O)[O-])cc1)c1ccc(Cn2cc([N+](=O)[O-])cn2)cc1` here?
The activity change, negative = inhibition was inconclusive: -16.9%.

Which “activity change, negative = inhibition” value does the source give for `Cc1cccnc1NCc1ccc(O)c2ncccc12` here?
Its value is inactive: -11.3%.

With `O=C(O)C1CCN(C(=O)NC2CCCCC2)CC1` as the compound, how does the Potency read?
Its Potency is inconclusive: 9.2 µM [rising, partial curve, poor fit].

With `Cc1ccc(-c2[nH][nH]c(=O)c(=O)c2N=Nc2ccccc2)cc1` as the compound, how does the “activity change, negative = inhibition” value read?
Its value is inactive: 2.64%.

Which activity change, negative = inhibition does the source give for `CC(=O)Nc1ccc(C(=S)NCCCO)cc1` here?
The activity change, negative = inhibition was inconclusive: -2.13%.

With `Cc1cc(C(=O)Nc2ccc3ccccc3c2)oc1C` as the compound, how does the Potency read?
Its Potency is inconclusive: 25.1 µM [falling, single point].

Which Potency does the source give for `C/C(NC(=O)c1cccc(F)c1)=C1/C(=O)C[C@@H]2[C@H]1C2(C)C` here?
Its Potency is inconclusive: 2.59 µM [rising, partial curve, poor fit].

Which activity change, negative = inhibition does the source give for `CC(C)NC(=O)COC(=O)c1ccc(O)cc1` here?
Its activity change, negative = inhibition is inconclusive: -2.23%.

For `Cc1ccc2nc(N3C(=O)C(O)=C(C(=O)c4ccco4)C3c3cccs3)sc2c1` (stereo not given), which activity change, negative = inhibition is on record?
The activity change, negative = inhibition was inconclusive: -3.39%.

For `CC(=O)c1cccc(NC(=O)NNC(=O)c2ccc(-c3ccccc3)cc2)c1`, which “activity change, negative = inhibition” value is on record?
Its value is inactive: 0.568%.

With `O=C(N[C@@H](Cc1ccccc1)C(=O)OCc1ccccc1)c1nc[nH]c1C(=O)N1CCNCC1` as the compound, how does the “activity change, negative = inhibition” value read?
The value was inactive: 1.79%.

For `COc1cc(C(C(=O)NC2CCCC2)N(C(=O)c2snc(C(N)=O)c2N)C2CCCC2)cc(OC)c1OC` (stereo not given), which activity change, negative = inhibition is on record?
Its activity change, negative = inhibition is inconclusive: 0.198%.

Which Potency does the source give for `CCOC(=O)c1c(C)nc2sc3c(=O)n(-c4ccc(C(C)=O)cc4)cnc3c2c1-c1ccc(Cl)cc1` here?
The Potency was inconclusive: 29.1 µM [rising, single point].

Which Potency does the source give for `O=C(CSc1nc2ccccc2c(=O)n1Cc1ccco1)c1ccccc1` here?
The Potency was inconclusive: 6.51 µM [rising, partial curve].

With `COc1cccc(NC(=O)CN2C(=O)c3cccnc3Oc3ccc(Cl)cc32)c1` as the compound, how does the Potency read?
Its Potency is inconclusive: 0.447 µM [falling, full curve, poor fit].

With `Cc1ccc(CNC(=O)Cn2ccc3cc(S(=O)(=O)N4CCCCCC4)ccc32)cc1` as the compound, how does the activity change, negative = inhibition read?
The activity change, negative = inhibition was inconclusive: -4.79%.

For `CCOC(=O)c1c(NC(=O)Nc2cccc(Cl)c2)sc(C)c1C`, which activity change, negative = inhibition is on record?
The activity change, negative = inhibition was inconclusive: 3.52%.

For `CS(=O)(=O)c1ccc(Cl)c(NC(=O)CSc2nnc(C3CC3)n2C2CC2)c1`, which activity change, negative = inhibition is on record?
Its activity change, negative = inhibition is inconclusive: -0.0948%.

Which activity change, negative = inhibition does the source give for `CCCCN(C)C(=O)Cn1ncc2c3ccccc3n(CCC)c2c1=O` here?
The activity change, negative = inhibition was inconclusive: -3.23%.

With `CC(=O)c1cccc(-n2nnnc2SCC(=O)Nc2cccc(NC(=O)c3ccco3)c2)c1` as the compound, how does the Potency read?
The Potency was inconclusive: 3.98 µM [falling, full curve].

For `C/C(CC(=O)Nc1cc(C)ccn1)=N\NC(=O)c1cccc(F)c1`, which Potency is on record?
Its Potency is inconclusive: 22.4 µM [falling, partial curve].

Which Potency does the source give for `CCc1cccc(NC(=O)Cc2cn(C)c3ccccc23)c1` here?
Its Potency is inconclusive: 22.4 µM [falling, single point].

Which Potency does the source give for `Cc1ccc2c(c1)/C(=C/c1ccccc1C)C(=O)N2` here?
Its Potency is inconclusive: 25.1 µM [falling, single point].

For `Cc1ccc(NC(=S)N2CCSC2c2cccs2)cc1` (stereo not given), which Potency is on record?
The Potency was inconclusive: 31.6 µM [falling, partial curve, poor fit].

Which activity change, negative = inhibition does the source give for `Cc1cc(S(=O)(=O)N(Cc2cccs2)Cc2ccccc2F)ccc1-n1cnnn1` here?
Its activity change, negative = inhibition is inconclusive: 9.34%.

Which Potency does the source give for `O=C(NCCc1ccc2c(c1)OCCO2)c1cc2ccccc2o1` here?
Its Potency is inconclusive: 22.4 µM [falling, single point].

For `Cc1cc(C2=NNC(=NC3CCCCC3)SC2)c(C)n1-c1c(C)n(C)n(-c2ccccc2)c1=O`, which “activity change, negative = inhibition” value is on record?
The value was inactive: 7.6%.

Which activity change, negative = inhibition does the source give for `S=C(Nc1cccnc1)NC1CCCC1` here?
The activity change, negative = inhibition was inconclusive: 8.16%.

With `CN1CCN(c2nc(-c3ccc(Cl)cc3Cl)nc3ccccc23)CC1` as the compound, how does the “activity change, negative = inhibition” value read?
The value was inactive: -4.42%.

With `CC1Cc2ccccc2N1C(=O)COC(=O)c1cccc(Br)c1` (stereo not given) as the compound, how does the “activity change, negative = inhibition” value read?
The value was inactive: -2.97%.

With `COc1ccc(S(=O)(=O)N2CCc3ccccc32)cc1C(=O)NCc1ccco1` as the compound, how does the activity change, negative = inhibition read?
The activity change, negative = inhibition was inconclusive: 11.5%.

Which activity change, negative = inhibition does the source give for `CC[n+]1c(/C=C/c2ccc(N(C)C)cc2)ccc2ccccc21` here?
Its activity change, negative = inhibition is inconclusive: 11.4%.

Which “activity change, negative = inhibition” value does the source give for `O=C(Nc1cccc(Cl)c1)c1csc(-c2ccccc2)n1` here?
Its value is inactive: 4.76%.

Which activity change, negative = inhibition does the source give for `Cc1ccc(C)c(S(=O)(=O)c2c[nH]c(=S)[nH]c2=O)c1` here?
Its activity change, negative = inhibition is inconclusive: -16.8%.

For `COc1ccc(C)c2sc(N(CCN(C)C)C(=O)c3ccc4ccccc4c3)nc12`, which activity change, negative = inhibition is on record?
The activity change, negative = inhibition was inconclusive: -18.4%.

Which activity change, negative = inhibition does the source give for `COc1ccc2[nH]cc(CCNC(=O)C3CCCNC3=O)c2c1` (stereo not given) here?
The activity change, negative = inhibition was inconclusive: -5.6%.

Which activity change, negative = inhibition does the source give for `COC(=O)c1ccc(OC)c(Cn2c(=O)n(C)c(=O)c3sccc32)c1` here?
Its activity change, negative = inhibition is inconclusive: 0.851%.

For `COc1ccc(OC)c(NC(=O)C2CCCN(S(=O)(=O)c3cccc4nsnc34)C2)c1` (stereo not given), which activity change, negative = inhibition is on record?
Its activity change, negative = inhibition is inconclusive: 6.56%.

With `COc1ccc(N(CC(=O)N/N=C/c2cccs2)S(=O)(=O)c2ccccc2)cc1` as the compound, how does the activity change, negative = inhibition read?
Its activity change, negative = inhibition is inconclusive: -22.6%.
